Source: patent US20080039419A1
No constants are given. Whether binding was seen depends on the method and setting. Some entries that bind do so weakly or less than the wild type.

Protein sequences, listed by entry. Tags and fused reporters are not part of them.
UniProt Q9QXN1: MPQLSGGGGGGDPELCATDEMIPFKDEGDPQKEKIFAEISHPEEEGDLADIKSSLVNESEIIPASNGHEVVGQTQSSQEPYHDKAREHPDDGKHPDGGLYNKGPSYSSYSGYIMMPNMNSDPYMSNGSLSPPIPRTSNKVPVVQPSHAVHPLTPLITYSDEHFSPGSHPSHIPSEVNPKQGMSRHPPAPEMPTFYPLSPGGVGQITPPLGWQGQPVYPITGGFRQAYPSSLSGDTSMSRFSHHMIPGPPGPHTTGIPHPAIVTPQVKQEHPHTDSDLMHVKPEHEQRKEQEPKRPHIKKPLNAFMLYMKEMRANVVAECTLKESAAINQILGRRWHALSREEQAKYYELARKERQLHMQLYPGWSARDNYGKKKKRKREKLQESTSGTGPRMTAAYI

Tests used:
[1] = molecular target: T1, β-catenin (rat) (UniProt Q9WU82); assay: complex formation in ILK-overexpressing IEC-18 cells
T1 sequence (looked up): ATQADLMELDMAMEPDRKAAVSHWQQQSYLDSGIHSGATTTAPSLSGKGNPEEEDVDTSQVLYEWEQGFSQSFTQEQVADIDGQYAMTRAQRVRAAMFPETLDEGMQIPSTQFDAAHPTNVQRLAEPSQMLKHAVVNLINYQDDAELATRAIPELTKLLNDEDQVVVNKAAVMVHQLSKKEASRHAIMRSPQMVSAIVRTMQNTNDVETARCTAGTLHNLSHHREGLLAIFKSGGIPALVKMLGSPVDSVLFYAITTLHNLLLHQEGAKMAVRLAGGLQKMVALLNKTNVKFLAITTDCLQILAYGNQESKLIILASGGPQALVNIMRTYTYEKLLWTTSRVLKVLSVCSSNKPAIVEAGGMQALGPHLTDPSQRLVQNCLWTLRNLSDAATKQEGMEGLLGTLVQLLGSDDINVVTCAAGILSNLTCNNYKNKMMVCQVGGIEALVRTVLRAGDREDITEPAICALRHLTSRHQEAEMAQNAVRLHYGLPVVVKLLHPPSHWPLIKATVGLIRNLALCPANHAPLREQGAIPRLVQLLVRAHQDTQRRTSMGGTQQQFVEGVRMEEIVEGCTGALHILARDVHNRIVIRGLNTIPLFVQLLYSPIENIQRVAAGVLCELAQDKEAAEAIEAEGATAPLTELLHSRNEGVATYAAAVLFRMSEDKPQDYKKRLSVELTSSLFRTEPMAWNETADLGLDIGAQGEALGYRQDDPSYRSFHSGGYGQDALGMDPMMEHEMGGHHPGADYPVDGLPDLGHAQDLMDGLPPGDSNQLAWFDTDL

[2] = molecular target: T1, β-catenin (rat); assay: complex formation in ILK-overexpressing IEC-18 cells (immunoprecipitation and Western blot)

LEF-1 (HMG transcription factor) (from UniProt Q9QXN1 1-397)
binding [1]: binds
binding [2]: binds
